The test system of the assay is BDF1 mice, P388 leukemia ip, median survival T/C. In words: NCI In Vivo Anticancer Drug Screen. Data for tumor model P388 Leukemia (intraperitoneal) in B6D2F1 (BDF1) mice. The settings on record: T/C endpoint: median survival time, higher T/C = longer survival. The gist of the method: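 Survival ratio, drug arm over vehicle arm, in mice with a transplanted tumour.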

The mark [1] stands for this setting: dose: 100.0 mg/kg/injection, schedule: Q01DX009 (ip), vehicle: saline with Tween-80.
Where [2] appears, read: dose: 400.0 mg/kg/injection, schedule: Q01DX009 (ip), vehicle: Klucel (hydroxypropylcellulose) (HPC).

The source of these data is PubChem BioAssay AID328 (DTP/NCI, 2004).

Structures are written as SMILES. The list is a part of this screen's results and no random one: it is rich in T/C values a quarter to a half above the control, in often repeated tests (any T/C) and in doses without a T/C. Other doses and runs of a compound stand elsewhere. T/C gives the treated animals as a percentage of the vehicle group. Some entries give survivors of the animals treated and no T/C: the source files T/C as zero there, which appears to mark a toxic dose or a test without result, not a measured value. Some survivor counts are full or nearly so, which does not show that the dose was tolerated: the source hardly ever lists a survival T/C far under the control, and the zero likely stands for such cases as well. Counts of survivors are from the toxicity check (mostly the fifth day) where no day follows; animals may have died later. Schedules are NCI's codes, taken here to give the interval after Q, in days (D) or hours (H), and the number of doses after X. Some entries hold several experiments; the values are given in rising order. For survival time, this PubChem deposit counts one and a half times the control or more as active, and values a quarter to a half above the control carry no call in these data; other NCI protocols may use other cut-offs. Some T/C values carry the count of animals alive at the toxicity check (mostly the fifth day); where none is given, no animal had died by that day. Counts like (3×) say how often a value occurs here.

For `O=[N+]([O-])c1cccc(O)c1`, the survivor count is on record as 3 of 6 (dose: 400.0 mg/kg/injection, schedule: Q01DX009 (ip), vehicle: saline with Tween-80) and 3 of 6 (dose: 400.0 mg/kg/injection, schedule: Q04DX003 (ip), vehicle: saline).

For `CCCCOC1OCN(CCOC)CC1(C)C` (centres undefined), under setting [1], the T/C is 138 % of control.

Consider `COC(=O)C(Cl)(Cl)N=Nc1c(Cl)cc(Cl)c(C)c1Cl`, for which the T/C is, setting by setting: (dose: 50.0 mg/kg/injection, schedule: Q01DX009 (ip), vehicle: saline with Tween-80) 142 % of control; under setting [1], 130 and 143 % of control. Besides, the survivor count (dose: 200.0 mg/kg/injection, schedule: Q01DX009 (ip), vehicle: saline with Tween-80) is given as 6 of 6.

Take `COc1cccc2c1C(=O)c1c(O)c3c(c(O)c1C2=O)CC(O)(C(C)=O)CC3OC1CC(N)C(O)C(C)O1` (centres undefined): the T/C was 135 % of control (dose: 4.0 mg/kg/injection, schedule: Q01DX010 (ip), vehicle: saline); 129 % of control (dose: 15.0 mg/kg/injection, schedule: Q04DX003 (ip), vehicle: water); 135 and 135 % of control [4 of 5 alive] (dose: 30.0 mg/kg/injection, schedule: Q04DX003 (ip), vehicle: water); 147 % of control (dose: 60.0 mg/kg/injection, schedule: Q04DX003 (ip), vehicle: water); 128 and 136 % of control (dose: 120.0 mg/kg/injection, schedule: Q04DX003 (ip), vehicle: water); 131 % of control (dose: 31.3 micrograms/kg/injection, schedule: Q01DX010 (ip), vehicle: saline). Where the note is “dose: 62.5 micrograms/kg/injection, schedule: Q01DX010 (ip), vehicle: saline”, the T/C is 140 % of control. Further, the survivor count (dose: 16.0 mg/kg/injection, schedule: Q01DX010 (ip), vehicle: saline) is 6 of 6 and the survivor count (dose: 32.0 mg/kg/injection, schedule: Q01DX001 (ip), vehicle: saline) was 2 of 6.

For `CCCCC(=O)c1cc(OC)cc(OC)c1`, the survivor count (dose: 100.0 mg/kg/injection, schedule: Q01DX009 (ip), vehicle: Klucel (hydroxypropylcellulose) (HPC)) was 6 of 6.

With `CN1CCN(CCOC(=O)N2c3ccccc3Sc3ccccc32)CC1`, the survivor count was 6 of 6 (dose: 25.0 mg/kg/injection, schedule: Q04DX003 (ip), vehicle: saline); 6 of 6 (dose: 50.0 mg/kg/injection, schedule: Q04DX003 (ip), vehicle: saline); 5 of 6 (dose: 100.0 mg/kg/injection, schedule: Q04DX003 (ip), vehicle: saline); 6 of 6 (dose: 200.0 mg/kg/injection, schedule: Q04DX003 (ip), vehicle: saline).

As for `CCCC(C)(C)c1cc(C(C)C)cc(C(C)(C)CCC)c1O`, the T/C (dose: 50.0 mg/kg/injection, schedule: Q01DX009 (ip), vehicle: other) is 127 % of control. Moreover, the survivor count is listed as 6 of 6 (dose: 100.0 mg/kg/injection, schedule: Q01DX009 (ip), vehicle: other) and 3 of 6 (dose: 200.0 mg/kg/injection, schedule: Q01DX009 (ip), vehicle: other).

As for `CCCCC(CC)COC(=O)/C=C/C(=O)OCC(CC)CCCC` (centres undefined), the survivor count under setting [2] is recorded as 6 of 6.

For the compound `CCC1CC(O)c2c(O)c3c(c(O)c2C1O)C(=O)c1cccc(O)c1C3=O` (centres undefined) (tested in a mixture with another compound), the survivor count is, setting by setting: (dose: 0.5 mg/kg/injection, schedule: Q01DX001 (ip), vehicle: saline) 1 of 6; (dose: 1.0 mg/kg/injection, schedule: Q01DX001 (ip), vehicle: saline) 3 of 6; (dose: 2.0 mg/kg/injection, schedule: Q01DX001 (ip), vehicle: saline) 2 of 6; (dose: 4.0 mg/kg/injection, schedule: Q01DX001 (ip), vehicle: saline) 3 of 6 and 5 of 6.

In the case of `COc1ccc(C2=NC(c3ccccc3)NC(c3ccccc3)/C2=C/c2ccccc2)cc1` (centres undefined), the T/C (dose: 25.0 mg/kg/injection, schedule: Q01DX009 (ip), vehicle: saline with Tween-80) was 128 % of control.

As to `COc1cccc(N=C(N)N=C(N)N)c1`, the survivor count (dose: 200.0 mg/kg/injection, schedule: Q01DX001 (ip), vehicle: saline) was 2 of 6.

Take `COC(=O)C1C2(C)CCc3cc(OC)ccc3C2=CC(=O)C1(C)C(=O)OC` (centres undefined): the survivor count (dose: 200.0 mg/kg/injection, schedule: Q04DX003 (sc), vehicle: steroid suspending solution) is recorded as 6 of 6.

In the case of `O=S(=O)(F)c1cc(C[P+](c2ccccc2)(c2ccccc2)c2ccccc2)ccc1Cl`, the T/C runs as follows: (dose: 4.0 mg/kg/injection, schedule: Q01DX009 (ip), vehicle: saline with Tween-80) 131 % of control; (dose: 6.25 mg/kg/injection, schedule: Q01DX009 (ip), vehicle: saline with Tween-80) 140 % of control; (dose: 8.0 mg/kg/injection, schedule: Q01DX009 (ip), vehicle: saline with Tween-80) 136 % of control; (dose: 8.0 mg/kg/injection, schedule: Q01DX009 (ip), vehicle: saline) 135 % of control; (dose: 12.0 mg/kg/injection, schedule: Q01DX009 (ip), vehicle: Klucel (hydroxypropylcellulose) (HPC)) 127 % of control; (dose: 12.0 mg/kg/injection, schedule: Q01DX009 (ip), vehicle: saline) 135 % of control. The T/C by setting is: (dose: 12.5 mg/kg/injection, schedule: Q01DX009 (ip), vehicle: saline with Tween-80) 135 % of control [5 of 6 alive]; (dose: 18.0 mg/kg/injection, schedule: Q01DX009 (ip), vehicle: Klucel (hydroxypropylcellulose) (HPC)) 127 % of control; (dose: 18.0 mg/kg/injection, schedule: Q01DX009 (ip), vehicle: saline) 140 % of control.

Consider `O=CN(O)CC(=O)O.[Zn]`, for which the T/C (dose: 8.5 mg/kg/injection, schedule: Q04DX003 (ip), vehicle: saline) is 140 % of control; the T/C (dose: 9.37 mg/kg/injection, schedule: Q01DX009 (ip), vehicle: saline) is 127 % of control; the T/C (dose: 13.0 mg/kg/injection, schedule: Q04DX003 (ip), vehicle: saline) was 136 % of control; the T/C (dose: 21.0 mg/kg/injection, schedule: Q04DX003 (ip), vehicle: saline) was 127 % of control. Further, the survivor count (dose: 12.5 mg/kg/injection, schedule: Q01DX009 (ip), vehicle: saline) is on record as 1 of 6; the survivor count (dose: 19.0 mg/kg/injection, schedule: Q04DX003 (ip), vehicle: saline) is reported as 4 of 6; the survivor count (dose: 25.0 mg/kg/injection, schedule: Q01DX009 (ip), vehicle: saline) is reported as 2 of 6.

On to `O=C(O[Si](Cc1ccccc1)(Cc1ccccc1)Cc1ccccc1)N(CCCl)CCCl`, for which the survivor count was 6 of 6 (dose: 100.0 mg/kg/injection, schedule: Q04DX003 (ip), vehicle: saline with Tween-80); 4 of 6 (dose: 200.0 mg/kg/injection, schedule: Q04DX003 (ip), vehicle: saline with Tween-80); 0 of 6 (dose: 400.0 mg/kg/injection, schedule: Q04DX003 (ip), vehicle: saline with Tween-80).

`C[C@@H]1O[C@@H](O[C@H]2CC[C@]3(C=O)[C@H]4CC[C@]5(C)[C@@H](c6ccc(=O)oc6)CC[C@]5(O)[C@@H]4CC[C@]3(O)C2)[C@H](O)[C@H](O)[C@H]1O[C@@H]1O[C@H](CO)[C@@H](O)[C@H](O)[C@H]1O`: the survivor count (dose: 10.0 mg/kg/injection, schedule: Q01DX010 (ip), vehicle: carboxymethylcellulose (CMC)) was 1 of 6 and the survivor count (dose: 20.0 mg/kg/injection, schedule: Q01DX010 (ip), vehicle: carboxymethylcellulose (CMC)) is 0 of 6.

Take `Cc1c2ccccc2cc2cccc[n+]12`: the T/C by setting is: (dose: 5.0 mg/kg/injection, schedule: Q01DX010 (ip), vehicle: saline) 125 (2×) and 136 % of control; (dose: 10.0 mg/kg/injection, schedule: Q01DX010 (ip), vehicle: saline) 147 % of control; (dose: 20.0 mg/kg/injection, schedule: Q04DX003 (ip), vehicle: saline) 130 % of control. Besides, the survivor count is, setting by setting: (dose: 40.0 mg/kg/injection, schedule: Q01DX010 (ip), vehicle: saline) 0 of 6 and 4 of 6; (dose: 80.0 mg/kg/injection, schedule: Q01DX010 (ip), vehicle: saline) 0 of 6.

As for `Cc1c2c(cc3c1[nH]c1ccccc13)C(c1ccc(Cl)cc1)=NCC2`, the survivor count is, setting by setting: (dose: 200.0 mg/kg/injection, schedule: Q01DX009 (ip), vehicle: Klucel (hydroxypropylcellulose) (HPC)) 6 of 6; under setting [2], 3 of 6.
